Paper doi:10.1101/2025.10.17.683101
These are yes or no findings as the source states them, for the method shown. Binding seen in cells or lysates may run through a third protein. Some binding calls cover weakened binding; strength is not graded here.

Protein sequences, listed by entry. Tags and fused reporters are not part of them.
UniProt Q60867: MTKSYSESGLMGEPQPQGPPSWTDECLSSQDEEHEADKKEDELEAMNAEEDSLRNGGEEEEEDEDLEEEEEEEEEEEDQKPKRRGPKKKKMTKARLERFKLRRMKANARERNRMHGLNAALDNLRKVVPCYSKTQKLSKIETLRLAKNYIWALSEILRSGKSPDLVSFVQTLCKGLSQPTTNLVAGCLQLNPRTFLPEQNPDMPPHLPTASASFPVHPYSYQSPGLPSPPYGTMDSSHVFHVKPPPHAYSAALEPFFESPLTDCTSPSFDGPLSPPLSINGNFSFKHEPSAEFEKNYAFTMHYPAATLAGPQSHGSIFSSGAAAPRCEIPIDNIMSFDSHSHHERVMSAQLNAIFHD
UniProt O09106: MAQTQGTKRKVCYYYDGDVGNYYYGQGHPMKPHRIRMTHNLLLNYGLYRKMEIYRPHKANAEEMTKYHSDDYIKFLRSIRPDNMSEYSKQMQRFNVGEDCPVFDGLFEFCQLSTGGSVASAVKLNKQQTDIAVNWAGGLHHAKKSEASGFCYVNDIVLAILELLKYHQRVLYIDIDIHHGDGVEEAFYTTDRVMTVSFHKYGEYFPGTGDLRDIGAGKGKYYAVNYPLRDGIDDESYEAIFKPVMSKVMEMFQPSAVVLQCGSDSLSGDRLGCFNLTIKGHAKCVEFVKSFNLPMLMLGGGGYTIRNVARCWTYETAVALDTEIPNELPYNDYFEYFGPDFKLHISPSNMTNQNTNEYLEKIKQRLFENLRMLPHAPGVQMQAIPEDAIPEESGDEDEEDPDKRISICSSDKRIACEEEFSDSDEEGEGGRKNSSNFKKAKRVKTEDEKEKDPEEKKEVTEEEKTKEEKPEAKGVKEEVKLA

B1: Sin3A (protein, UniProt Q60520 1-1274)
chain: MKRRLDDQESPVYAAQQRRIPGSTEAFSHQHRVLAPAPPVYEAVSETMQSATGIQYSVAPNYQVSAVPQSSGSHGPAIAAVHSSHHHPTAVQPHGGQVVQSHAHPAPPVAPVQGQQQFQRLKVEDALSYLDQVKLQFGSQPQVYNDFLDIMKEFKSQSIDTPGVISRVSQLFKGHPDLIMGFNTFLPPGYKIEVQTNDMVNVTTPGQVHQIPTHGIQPQPQPPPQHPSQPSSQSAPTPAQPAPQPTAAKVSKPSQLQAHTPASQQTPPLPPYASPRSPPVQPHTPVTISLGTAPSLQNNQPVEFNHAINYVNKIKNRFQGQPDIYKAFLEILHTYQKEQRNAKEAGGNYTPALTEQEVYAQVARLFKNQEDLLSEFGQFLPDANSSVLLSKTTAEKVDSVRNDHGGTVKKPQLNNKPQRPSQNGCQIRRHSGTGATPPVKKKPKLMSLKESSMADASKHGVGTESLFFDKVRKALRSAEAYENFLRCLVIFNQEVISRAELVQLVSPFLGKFPELFNWFKNFLGYKESVHLESFPKERATEGIAMEIDYASCKRLGSSYRALPKSYQQPKCTGRTPLCKEVLNDTWVSFPSWSEDSTFVSSKKTQYEEHIYRCEDERFELDVVLETNLATIRVLEAIQKKLSRLSAEEQAKFRLDNTLGGTSEVIHRKALQRIYADKAADIIDGLRKNPSIAVPIVLKRLKMKEEEWREAQRGFNKVWREQNEKYYLKSLDHQGINFKQNDTKVLRSKSLLNEIESIYDERQEQATEENAGVPVGPHLSLAYEDKQILEDAAALIIHHVKRQTGIQKEDKYKIKQIMHHFIPDLLFAQRGDLSDVEEEEEEEMDVDEATGAPKKHNGVGGSPPKSKLLFSNTAAQKLRGMDEVYNLFYVNNNWYIFMRLHQILCLRLLRICSQAERQIEEENREREWEREVLGIKRDKSDSPAIQLRLKEPMDVDVEDYYPAFLDMVRSLLDGNIDSSQYEDSLREMFTIHAYIAFTMDKLIQSIVRQLQHIVSDEVCVQVTDLYLAENNNGATGGQLNSQTSRSLLESAYQRKAEQLMSDENCFKLMFIQSQGQVQLTVELLDTEEENSDDPVEAERWSDYVERYMSSDTTSPELREHLAQKPVFLPRNLRRIRKCQRGREQQEKEGKEGNSKKTMENVESLDKLECRFKLNSYKMVYVIKSEDYMYRRTALLRAHQSHERVSKRLHQRFQAWVDKWTKEHVPREMAAETSKWLMGEGLEGLVPCTTTCDTETLHFVSINKYRVKYGTVFKAP

Target: NeuroD1 (mouse (endogenous in P7 cerebellum)) (UniProt Q60867)
Test: co-IP; anti-NeuroD1 antibody on Dynabeads Protein A incubated with RIPA lysate of P7 wild-type mouse cerebellum, 4°C, 2 hours; five washes (10 mM Tris-HCl, 150 mM NaCl, 0.5 mM EDTA, 0.05% NP40); immunoblots for Sin3A, Hdac1 and NeuroD1; nonspecific rabbit IgG as control

Molecule | binding
Hdac1 (from UniProt O09106 1-482) | binds
B1 | binds
